# Source: the supplement of paper PMC12067093, “Discovery and optimisation of a covalent ligand for TRIM25 and its application to targeted protein ubiquitination” (Chemical Science, 2025)
# Protein sequences, listed by entry. Tags and fused reporters are not part of them. Lines headed by an entry give the natural chain unless they say otherwise; changes in a name come on top.
# UniProt Q9Y5M8: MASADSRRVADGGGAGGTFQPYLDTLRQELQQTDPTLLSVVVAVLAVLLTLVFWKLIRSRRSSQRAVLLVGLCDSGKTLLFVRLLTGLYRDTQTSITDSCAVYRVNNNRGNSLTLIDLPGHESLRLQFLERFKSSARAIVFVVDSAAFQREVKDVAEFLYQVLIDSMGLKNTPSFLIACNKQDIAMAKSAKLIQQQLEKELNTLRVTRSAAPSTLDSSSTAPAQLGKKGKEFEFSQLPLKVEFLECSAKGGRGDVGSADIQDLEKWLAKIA
# UniProt Q8NBK3: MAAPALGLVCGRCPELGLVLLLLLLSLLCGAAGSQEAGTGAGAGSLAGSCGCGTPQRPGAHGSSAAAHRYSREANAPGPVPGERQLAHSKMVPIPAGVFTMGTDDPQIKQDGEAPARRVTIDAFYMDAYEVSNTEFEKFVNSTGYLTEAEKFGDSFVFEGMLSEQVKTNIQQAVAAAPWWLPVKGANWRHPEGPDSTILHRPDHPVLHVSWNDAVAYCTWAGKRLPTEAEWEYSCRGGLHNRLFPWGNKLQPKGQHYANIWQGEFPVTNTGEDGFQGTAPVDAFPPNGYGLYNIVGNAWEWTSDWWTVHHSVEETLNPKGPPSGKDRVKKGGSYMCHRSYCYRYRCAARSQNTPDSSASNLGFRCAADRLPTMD
# UniProt Q9UJZ1: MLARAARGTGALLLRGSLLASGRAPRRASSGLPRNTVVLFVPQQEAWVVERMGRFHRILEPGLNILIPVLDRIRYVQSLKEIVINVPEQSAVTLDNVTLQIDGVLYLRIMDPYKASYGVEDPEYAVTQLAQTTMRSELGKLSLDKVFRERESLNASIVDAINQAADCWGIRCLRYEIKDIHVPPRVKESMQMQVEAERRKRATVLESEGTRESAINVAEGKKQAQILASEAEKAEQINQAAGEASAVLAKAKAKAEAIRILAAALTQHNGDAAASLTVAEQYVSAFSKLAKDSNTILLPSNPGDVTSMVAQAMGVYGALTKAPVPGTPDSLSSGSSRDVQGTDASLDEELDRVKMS
# UniProt P84103: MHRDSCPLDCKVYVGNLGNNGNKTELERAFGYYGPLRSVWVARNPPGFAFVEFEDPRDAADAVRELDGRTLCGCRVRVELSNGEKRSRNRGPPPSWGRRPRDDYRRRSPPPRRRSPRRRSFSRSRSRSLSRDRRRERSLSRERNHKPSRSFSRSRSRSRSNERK
# UniProt Q9UH65: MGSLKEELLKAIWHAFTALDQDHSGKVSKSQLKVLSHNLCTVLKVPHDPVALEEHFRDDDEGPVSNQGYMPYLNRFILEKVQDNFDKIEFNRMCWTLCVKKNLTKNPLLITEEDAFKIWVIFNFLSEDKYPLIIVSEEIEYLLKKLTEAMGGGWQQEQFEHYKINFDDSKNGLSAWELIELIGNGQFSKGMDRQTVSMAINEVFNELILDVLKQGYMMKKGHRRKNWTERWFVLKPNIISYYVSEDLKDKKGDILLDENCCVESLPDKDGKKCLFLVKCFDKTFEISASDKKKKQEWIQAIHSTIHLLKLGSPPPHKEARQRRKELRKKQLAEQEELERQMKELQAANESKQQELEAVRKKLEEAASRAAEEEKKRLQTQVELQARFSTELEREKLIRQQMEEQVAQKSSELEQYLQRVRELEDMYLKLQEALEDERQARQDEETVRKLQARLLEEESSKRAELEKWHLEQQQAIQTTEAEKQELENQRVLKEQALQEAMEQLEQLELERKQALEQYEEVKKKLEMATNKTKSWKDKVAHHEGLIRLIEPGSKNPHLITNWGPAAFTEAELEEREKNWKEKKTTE
# UniProt P05455: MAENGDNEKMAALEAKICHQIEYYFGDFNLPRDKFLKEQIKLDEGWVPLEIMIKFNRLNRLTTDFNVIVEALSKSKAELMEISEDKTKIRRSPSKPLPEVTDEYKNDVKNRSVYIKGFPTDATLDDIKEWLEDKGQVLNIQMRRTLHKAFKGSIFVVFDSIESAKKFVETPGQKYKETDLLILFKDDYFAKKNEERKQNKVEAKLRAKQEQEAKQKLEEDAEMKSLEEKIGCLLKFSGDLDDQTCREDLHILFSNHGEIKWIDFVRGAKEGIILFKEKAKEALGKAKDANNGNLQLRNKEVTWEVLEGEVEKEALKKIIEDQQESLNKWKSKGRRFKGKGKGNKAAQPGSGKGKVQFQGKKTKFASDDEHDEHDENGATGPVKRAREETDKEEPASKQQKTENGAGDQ
# UniProt P27105: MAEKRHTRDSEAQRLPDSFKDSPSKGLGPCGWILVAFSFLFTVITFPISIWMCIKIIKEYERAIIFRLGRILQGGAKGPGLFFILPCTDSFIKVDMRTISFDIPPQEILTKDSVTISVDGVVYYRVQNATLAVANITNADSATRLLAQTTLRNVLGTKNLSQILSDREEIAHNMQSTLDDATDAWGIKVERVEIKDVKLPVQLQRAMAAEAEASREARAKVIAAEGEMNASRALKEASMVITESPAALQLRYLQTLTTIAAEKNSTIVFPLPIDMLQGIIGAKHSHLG
# UniProt Q9P289: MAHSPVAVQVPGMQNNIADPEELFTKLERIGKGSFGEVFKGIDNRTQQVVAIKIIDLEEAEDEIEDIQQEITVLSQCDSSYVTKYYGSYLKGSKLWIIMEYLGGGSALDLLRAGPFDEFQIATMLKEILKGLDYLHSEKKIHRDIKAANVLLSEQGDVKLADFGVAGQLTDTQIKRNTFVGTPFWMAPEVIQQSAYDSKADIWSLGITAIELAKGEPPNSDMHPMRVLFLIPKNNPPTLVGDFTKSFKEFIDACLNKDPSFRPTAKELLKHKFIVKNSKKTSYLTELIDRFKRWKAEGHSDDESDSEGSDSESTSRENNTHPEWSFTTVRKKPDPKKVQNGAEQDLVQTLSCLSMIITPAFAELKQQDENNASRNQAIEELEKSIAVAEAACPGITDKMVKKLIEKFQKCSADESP
# UniProt Q8TE77: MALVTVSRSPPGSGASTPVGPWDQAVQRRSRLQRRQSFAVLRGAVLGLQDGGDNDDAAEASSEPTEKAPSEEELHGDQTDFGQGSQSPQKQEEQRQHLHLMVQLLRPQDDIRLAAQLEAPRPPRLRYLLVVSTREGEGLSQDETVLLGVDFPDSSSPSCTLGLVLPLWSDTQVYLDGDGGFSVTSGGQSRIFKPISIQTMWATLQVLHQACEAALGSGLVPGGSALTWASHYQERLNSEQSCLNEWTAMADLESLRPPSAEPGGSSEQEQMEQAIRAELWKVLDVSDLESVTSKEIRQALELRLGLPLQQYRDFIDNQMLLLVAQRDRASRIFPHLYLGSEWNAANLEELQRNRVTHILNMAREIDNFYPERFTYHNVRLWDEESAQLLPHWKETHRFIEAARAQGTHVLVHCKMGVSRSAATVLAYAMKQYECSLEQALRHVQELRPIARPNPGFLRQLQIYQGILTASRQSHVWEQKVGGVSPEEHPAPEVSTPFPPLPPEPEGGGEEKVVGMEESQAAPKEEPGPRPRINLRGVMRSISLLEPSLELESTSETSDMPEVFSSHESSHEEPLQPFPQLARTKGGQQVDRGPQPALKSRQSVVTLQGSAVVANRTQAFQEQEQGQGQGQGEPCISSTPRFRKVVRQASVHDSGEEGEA
# UniProt Q86Y82: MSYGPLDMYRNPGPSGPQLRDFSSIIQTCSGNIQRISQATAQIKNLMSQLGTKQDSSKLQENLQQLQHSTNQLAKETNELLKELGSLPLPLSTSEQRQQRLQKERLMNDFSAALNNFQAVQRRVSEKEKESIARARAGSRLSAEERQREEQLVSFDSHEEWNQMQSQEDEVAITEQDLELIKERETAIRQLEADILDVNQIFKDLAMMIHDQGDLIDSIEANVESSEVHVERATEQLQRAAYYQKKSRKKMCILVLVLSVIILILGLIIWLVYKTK
# UniProt Q8NBJ7: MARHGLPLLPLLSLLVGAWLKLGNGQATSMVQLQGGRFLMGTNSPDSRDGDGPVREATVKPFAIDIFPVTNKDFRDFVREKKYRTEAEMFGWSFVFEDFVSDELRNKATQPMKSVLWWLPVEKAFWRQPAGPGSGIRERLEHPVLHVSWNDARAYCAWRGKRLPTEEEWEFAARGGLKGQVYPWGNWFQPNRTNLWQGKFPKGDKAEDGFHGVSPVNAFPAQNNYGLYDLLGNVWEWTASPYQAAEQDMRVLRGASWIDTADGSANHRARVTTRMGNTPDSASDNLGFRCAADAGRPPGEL
# UniProt Q16629: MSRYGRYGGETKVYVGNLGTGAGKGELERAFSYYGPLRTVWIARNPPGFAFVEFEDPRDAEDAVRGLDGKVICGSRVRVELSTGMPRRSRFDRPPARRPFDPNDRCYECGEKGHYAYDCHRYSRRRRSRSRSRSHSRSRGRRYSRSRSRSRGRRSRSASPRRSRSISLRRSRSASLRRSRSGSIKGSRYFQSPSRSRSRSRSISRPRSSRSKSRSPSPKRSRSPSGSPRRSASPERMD
# Some of the results follow.
# Compound: CC1Cc2ccccc2N1C(=O)C1CCCN(C1)C(=O)CCl (mixture of isomers) [TRIM25 ligand 11 (diastereomer mixture)]
# Assay: probe-labelled cysteine peptide fold change vs DMSO (competition) (log2 fold change); higher = less target engagement (more negative = stronger competition)
# Conditions: THP-1, incubation time: 4 h
# 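Note: competitive chemoproteomic profiling in live THP-1 cells with an iodoacetamide desthiobiotin (IA-DTB) probe, comparing probe-labelled peptide intensities in compound-treated cells against DMSO-treated controls.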
Target,probe-labelled cysteine peptide fold change (10 µM),probe-labelled cysteine peptide fold change (50 µM)
SUPT6H_Q7KZ85_796_DHPVFCALVNGEGEVTDFLR (UniProt Q7KZ85),0.36,0.207
SRPRB_Q9Y5M8_246_VEFLECSAK (UniProt Q9Y5M8),0.0392,-0.0286
SUMF1_Q8NBK3_235_RLPTEAEWEYSCR (UniProt Q8NBK3),-0.0639,-0.178
SUPT6H_Q7KZ85_1021_TQLVTMCHMGPK (UniProt Q7KZ85),-0.0542,-0.0569
STOML2_Q9UJZ1_167_ERESLNASIVDAINQAADCWGIR (UniProt Q9UJZ1),-0.0664,0.0402
SRSF3_P84103_10_DSCPLDCK (UniProt P84103),-0.261,-0.35
SWAP70_Q9UH65_273_CLFLVK (UniProt Q9UH65),-0.0592,0.0489
SSB_P05455_245_FSGDLDDQTCR (UniProt P05455),0.115,0.0442
STOM_P27105_87_GPGLFFILPCTDSFIK (UniProt P27105),0.292,0.467
STK26_Q9P289_392_SIAVAEAACPGITDK (UniProt Q9P289),0.0541,-0.26
SSH3_Q8TE77_434_QYECSLEQALR (UniProt Q8TE77),0.121,0.23
STX12_Q86Y82_29_DFSSIIQTCSGNIQR (UniProt Q86Y82),0.0879,-0.025
SUMF2_Q8NBJ7_290_CAADAGRPPGEL (UniProt Q8NBJ7),-0.0159,-0.0645
SRSF7_Q16629_106+109_CYECGEK (UniProt Q16629),0.0653,0.122
SUPT6H_Q7KZ85_1169_LIICNVTGIAHR (UniProt Q7KZ85),0.103,0.209

# Already shown: an excerpt of the list.
Target,probe-labelled cysteine peptide fold change (10 µM),probe-labelled cysteine peptide fold change (50 µM)
STOML2_Q9UJZ1_167_ERESLNASIVDAINQAADCWGIR (UniProt Q9UJZ1),-0.0664,0.0402
SRSF3_P84103_10_DSCPLDCK (UniProt P84103),-0.261,-0.35
